Measured values as given in patent US12186311B2, “Antiproliferative compounds and second active agents for combined use” (Celgene Corporation, priority 2019, dated 2025).
At least one compound was matched to its structure with a doubt left.

Experiments:
Format in all cases: cell-based
[1] = tested on: panel of MM cell lines (H929-1051, KMS11, KMS-12PE, L363, OPM-P10, RPMI8226); assay: Compound 2 combination with small molecule inhibitors, 3 day Cell Titer-Glo, Highest Single Agent synergy; settings: six MM cell lines, 3 days, Highest Single Agent method
Protocol: The combination experiments were run twice, each time with replicate data on separate plates. Compounds were pre-spotted into the appropriate wells of 384-well plates using an acoustic dispenser. All MM cell lines were cultured in an incubator at 37° C. with 5% CO2 using the indicated cell culture media containing 1× Penicillin-Streptomycin. Cells were added to the compound containing 384-well plates using a Multidrop Combi Reagent Dispenser and allowed to incubate for 3 days at 37° C. with 5% CO2. After 3 days, cells were assessed for their level of ATP content via Cell Titer-Glo measured on a luminescence detector (PerkinElmer Envision).
The Highest Single Agent (HAS) method was used to detect synergy in the dose response curve data. Combinations were analyzed from a response surface perspective.

[2] = tested on: AMO1 (parental) cell line; assay: Cell proliferation, combination with Compound 2, combination index (Calcusyn), AMO1; settings: AMO1, 3 days
Protocol: (§1) AMO1 (parental) and AMO1-PR (pomalidomide resistant) cell lines were treated with various doses of Compound 2 in combination with increasing doses of an MEK inhibitor trametinib for 3 days. Cell proliferation was analyzed using thymidine incorporation assays. Combination index values were calculated by Calcusyn and values below 10^0 represented the synergy between the combination treatments. The results are shown in FIG. 4A (AMO1), FIG. 4B (AMO1 combination index), FIG. 4C (AMO1-PR), and FIG. 4D (AMO1-PR combination index), respectively.
(§2) AMO1 and AMO1-PR (pomalidomide resistant) cell lines were treated with increasing doses of Compound 2 in combination with a PLK1 inhibitor (BI2536). Changes in cell proliferation were studied in response to monotherapy and combinations at Day 3 post treatment. Combination Index was calculated using Calcusyn based method. Combination index values were calculated by Calcusyn and values below 10^0 represented the synergy between the combination treatments. […]
(§3) AMO1 and AMO1-PR (pomalidomide resistant) cell lines were treated with increasing doses of Compound 2 in combination with an NEK2 inhibitor (JH295). […] Combination index values were calculated by Calcusyn and values below 10^0 represented the synergy between the combination treatments. […]

[3] = tested on: AMO1-PR (pomalidomide resistant) cell line; assay: Cell proliferation, combination with Compound 2, combination index (Calcusyn), AMO1-PR; settings: 3 days
Protocol: as §1, §2, §3

For CC(=O)Nc1cccc(-n2c(=O)n(C3CC3)c(=O)c3c(Nc4ccc(I)cc4F)n(C)c(=O)c(C)c32)c1 [trametinib], the “synergy in combination with Compound 2” value [1] was “synergy in one, two, or three out of the six cell lines tested”, the “synergy with Compound 2 (combination index)” value [2] was “synergistic activity with Compound 2” and the “synergy with Compound 2 (combination index)” value [3] was “synergistic activity with Compound 2”.
